{"source": "paper PMC8115640", "binders": {"B1": {"name": "PAT9 (protein S-acyltransferase 9), fused to the C-terminal fragment of firefly luciferase (enzyme)", "chain": "MAGRVFEAWKGSNKFLFGGRLIFGPDAWSIPFTFLLIITPVCFFSVFVATHLRRELLPNNAGHVFLVAGVLFTVFVLILLFLTSARDPGIVPRNSHPPEEELCYDTTVSSDGRQTPTVQIPRTKEVMVYGVSVRVKYCDTCMLYRPPRCSHCSICNNCVERFDHHCPWRNYRYFFMFVSSATILCIYIFSMSALYIKVLMDNHQGTVWRAMRESPWAVMLMIYCFISLWFVGGLTGFHLYLISTNQTTYENFRYRSDNRINVYNRGCSNNFFETFCSKVKPSRNDFRAFIKEEPPRNITLATTWERPEEADEENREERRQKVEDDLDIDEDVMKLQQRLNDEEGSDTAHHKIDIDQMRIGSNERAPTIRSEARHGNWGARSNAQEEDVIAGSSVRESRSYAAAEEGR"}}, "molecular_target": "T1, P2K1 (DORN1, LecRK-I.9; extracellular ATP receptor), fused to the N-terminal fragment of firefly luciferase (Arabidopsis thaliana) (UniProt Q9LSR8)", "T1 sequence": "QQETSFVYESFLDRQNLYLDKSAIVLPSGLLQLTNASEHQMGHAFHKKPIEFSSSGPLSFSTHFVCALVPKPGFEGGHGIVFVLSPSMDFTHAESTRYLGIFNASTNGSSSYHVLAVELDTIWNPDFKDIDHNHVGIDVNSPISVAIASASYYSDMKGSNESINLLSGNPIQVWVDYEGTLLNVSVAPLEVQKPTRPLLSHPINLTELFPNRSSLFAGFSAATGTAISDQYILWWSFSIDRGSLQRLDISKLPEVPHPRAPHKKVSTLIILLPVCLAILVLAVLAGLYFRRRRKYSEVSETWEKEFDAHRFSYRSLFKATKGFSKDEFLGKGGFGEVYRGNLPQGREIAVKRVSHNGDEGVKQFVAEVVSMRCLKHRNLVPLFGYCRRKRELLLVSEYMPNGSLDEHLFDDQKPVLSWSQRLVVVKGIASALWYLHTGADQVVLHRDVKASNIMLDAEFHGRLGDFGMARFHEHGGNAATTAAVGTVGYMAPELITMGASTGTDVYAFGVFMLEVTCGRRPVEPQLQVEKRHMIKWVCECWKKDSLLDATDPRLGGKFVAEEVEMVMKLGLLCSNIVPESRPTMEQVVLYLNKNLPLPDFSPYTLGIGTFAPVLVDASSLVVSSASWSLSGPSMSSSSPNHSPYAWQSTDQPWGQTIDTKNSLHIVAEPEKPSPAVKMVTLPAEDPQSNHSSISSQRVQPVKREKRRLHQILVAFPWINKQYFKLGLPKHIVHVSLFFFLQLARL", "assay": "split reporter; split-luciferase complementation imaging in N. benthamiana leaves, Agrobacterium infiltration, 48 h, 1 mM D-luciferin; mock or 500 uM ATPγS added, panels at 15 min and 1 h; empty vectors as controls", "note": "No constants are given. Whether binding was seen depends on the method and setting. Binding seen in cells or lysates may run through a third protein. Some binding calls cover weakened binding; strength is not graded here. Sequences can lack the tags named with a protein."}
{"binder": "B1", "values": [{"measurement": "binding", "result": "binds"}]}
